# From PubChem BioAssay AID493014 (National Center for Advancing Translational Sciences (NCATS), 2011)
# Among all 340,000 compounds or so, about 170 (0.05%) were called active. Inconclusive results, whose numbers are uncertain, are shown with a selection of clear calls. Calls come from the whole dose curve; as a rule, active = well fitted inhibition curve with a large enough effect in the signal ratio, with a control signal flat (not every such curve was filed as active); inconclusive = small, poorly fitted or top-dose-only effect, or effect the other way, or a change in a side signal; inactive = flat fitted curve, though single readings scatter; the % refers to the signal ratio. Potencies beside an inconclusive call are fits to weak or partial responses and may not hold up.
# Test: qHTS Assay to Find Inhibitors of Chronic Active B-Cell Receptor Signaling;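 for activity change, negative = inhibition: plate controls were basal doxycycline-induced cells for no effect and cells given 10 µM MG132 for full effect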
# Conditions: ABC-DLBCL IkBa-CBG/CBR reporter, luminescence ratio (green luciferase fused to IkBa over red control in TMD8 lymphoma cells), 4 h; activity change, negative = inhibition: at 46.1 µM (top of the series)
# Method in brief: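 TMD8 human ABC-DLBCL cells with doxycycline-inducible IκBα–green luciferase fusion and unfused red luciferase, in 0.5% FBS medium; compounds up to 46 uM, 4 h at 37C. Green/red luminescence ratio, filter-overlap corrected, fitted to concentration-response curves.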
# Potency is the fitted concentration of half-maximal effect.
SMILES,"activity change, negative = inhibition",Potency
COc1cc(-c2nnc3sc(Cc4ccccc4)nn23)cc(OC)c1OC,inconclusive: -18.1%,
O=C(Nc1cc(C(F)(F)F)ccc1N1CCOCC1)c1n[nH]c(=O)c2ccccc12,inconclusive: 0.361%,
CCn1c(SCC(=O)C(C)(C)C)nnc1-c1cccnc1,inconclusive: -3.24%,
O=C(CN1CCCCCC1)Nc1ccc(Cl)cc1F,,"inconclusive: 35.5 µM [rising, single point]"
Cc1csc(CNc2ncnc3ccc(-c4ccccc4Cl)cc23)c1,,"inconclusive: 5.8 µM [falling, full curve, poor fit]"
COc1ccc(Nc2nc(N3CCN(C)CC3)nc3ccccc23)c(OC)c1,,"inconclusive: 20 µM [falling, single point]"
Cc1cccc(-n2ncc3c(=O)[nH]c(SCC(=O)Nc4cc(C)on4)nc32)c1,inconclusive: 4.72%,
COc1ccc(OCCC(=O)OCC(=O)NC2CCCCC2)cc1,inconclusive: 0.0037%,
Cc1ccccc1C(=O)NC(=S)Nc1ccccc1[N+](=O)[O-],inactive: 2.98%,
O=C(NCCCO)c1ccc2nc(-c3ccco3)c(-c3ccco3)nc2c1,inconclusive: -1.88%,
COc1ccc(N=Nc2c(C)[nH][nH]c2=O)cc1,,"inconclusive: 5.62 µM [falling, single point]"
Cc1ccccc1/C(N)=N/OC(=O)c1cccs1,,"inconclusive: 23.1 µM [falling, single point]"
N#Cc1cc([N+](=O)[O-])ccc1NC(=O)COC(=O)CN1C(=O)C2CCCCC2C1=O (stereo unspecified),inactive: -8.47%,
C/C=C/C=C\C(=O)Nc1cccc(C2=NOC3(C2)C[C@@H](C(N)=O)N(C(=O)c2cc([N+](=O)[O-])cc([N+](=O)[O-])c2C)C3)c1 (stereo partly specified),,"inconclusive: 7.94 µM [falling, partial curve]"
O=C(N/N=C/c1c(O)n(-c2ccccc2Cl)c(=O)c2ccccc12)C1COc2ccccc2O1 (stereo unspecified),,"inconclusive: 18.4 µM [falling, partial curve]"
Cc1cccc2sc(N(Cc3cccnc3)C(=O)c3cccs3)nc12,,"inconclusive: 7.08 µM [activator, partial curve, poor fit]"
COc1ccccc1CCNC(=O)c1cc(COc2cccc(C(F)(F)F)c2)on1,inactive: -0.894%,
CCn1c(SCC(=O)N/N=C/C=C/c2ccco2)nc2ccccc21,,"inconclusive: 16.4 µM [falling, partial curve]"
CCS(=O)(=O)Nc1cccc(C2=NN(S(C)(=O)=O)C(c3ccccc3)C2)c1 (stereo unspecified),inactive: -10.5%,
COc1cc(-c2nc(-c3ccccc3)c(-c3cccs3)[nH]2)cc(OC)c1OC,,"inconclusive: 0.184 µM [falling, partial curve, poor fit]"
COC(=O)C1=C(C)N(c2cccc3ccccc23)C(=O)C1,inconclusive: -6.75%,

SMILES,"activity change, negative = inhibition",Potency
Cc1ccc(CNC(=O)COC(=O)C2CCC2)cc1,inconclusive: 3.57%,
COc1ccc(NC(=O)CCC2CCCC2)cc1OC,inconclusive: 11.9%,
COc1cc(/C=N/NC(=S)Nc2cccc(S(=O)(=O)N(C)C)c2)cc(OC)c1O,,"inconclusive: 6.51 µM [falling, partial curve, poor fit]"
c1ccc(-c2oc3ncnc(NCCCN4CCOCC4)c3c2-c2ccccc2)cc1,inconclusive: -2.97%,
Cc1c(C)n2c3c(cccc13)CC2,inactive: 2.18%,
COc1ccc(C(=O)Oc2cccc(Nc3ncnc4ccccc34)c2)cc1OC,,"inconclusive: 23.1 µM [falling, partial curve]"
Cc1sc(NC(=O)C2C3CCC(O3)C2C(=O)O)nc1-c1ccc(CC(C)C)cc1 (stereo unspecified),inconclusive: 4.01%,
C=CCSc1nnc(NC(=O)Cc2ccc(OC)c(OC)c2)s1,inconclusive: 6.92%,
CCn1cc(/C=N/NS(=O)(=O)c2ccc(OC)cc2)c(C)n1,inconclusive: 14.3%,
COC(=O)c1ccc(/C=C2\SC(=S)N(CCCC(=O)NCCCN3CCOCC3)C2=O)cc1,inconclusive: -15.1%,
COCCCNC(=O)c1c(N)n(/N=C/c2cccs2)c2nc3ccccc3nc12,inconclusive: -0.21%,
COc1ccc(OCc2nnc(SCC(=O)N3CCCc4ccccc43)n2-c2ccc(C)cc2)cc1,,"inconclusive: 25.9 µM [falling, single point]"
COc1ccc(/C=C2/C(=O)N=C(N)N2C)cc1OC,inconclusive: 0.0017%,
O=[N+]([O-])c1cccnc1N/N=C/c1ccccc1O,inactive: 0.693%,
CC(=O)Nc1nc2n(n1)C(c1ccc(F)cc1)C=C(c1ccccc1)N2 (stereo unspecified),inactive: 2.83%,
Cc1ccc(-c2nc(C=Nc3ccc(O)cc3)c(O)o2)cc1,,"inconclusive: 35.5 µM [falling, single point]"
CCS(=O)(=O)N1CCN(c2cccc(C)c2C)CC1,inconclusive: 0.0293%,
Cc1ccccc1NC(=O)c1ccc([N+](=O)[O-])o1,,"inconclusive: 17.8 µM [falling, partial curve, poor fit]"
CCOC(=O)c1cn(Cc2cccc(Cl)c2)c2cc(C)nn2c1=O,inconclusive: -3.46%,
Cc1ccc(NC(=O)/C(C#N)=N/Nc2ccc(C(=O)O)cc2)c(C)c1,inconclusive: 169%,
Brc1ccc(CNc2ccc3ncccc3c2)cc1,inactive: -1.18%,

# Structures listed so far that contain sulfur, in the order listed:
SMILES,"activity change, negative = inhibition",Potency
COc1cc(-c2nnc3sc(Cc4ccccc4)nn23)cc(OC)c1OC,inconclusive: -18.1%,
CCn1c(SCC(=O)C(C)(C)C)nnc1-c1cccnc1,inconclusive: -3.24%,
Cc1csc(CNc2ncnc3ccc(-c4ccccc4Cl)cc23)c1,,"inconclusive: 5.8 µM [falling, full curve, poor fit]"
Cc1cccc(-n2ncc3c(=O)[nH]c(SCC(=O)Nc4cc(C)on4)nc32)c1,inconclusive: 4.72%,
Cc1ccccc1C(=O)NC(=S)Nc1ccccc1[N+](=O)[O-],inactive: 2.98%,
Cc1ccccc1/C(N)=N/OC(=O)c1cccs1,,"inconclusive: 23.1 µM [falling, single point]"
Cc1cccc2sc(N(Cc3cccnc3)C(=O)c3cccs3)nc12,,"inconclusive: 7.08 µM [activator, partial curve, poor fit]"
CCn1c(SCC(=O)N/N=C/C=C/c2ccco2)nc2ccccc21,,"inconclusive: 16.4 µM [falling, partial curve]"
CCS(=O)(=O)Nc1cccc(C2=NN(S(C)(=O)=O)C(c3ccccc3)C2)c1 (stereo unspecified),inactive: -10.5%,
COc1cc(-c2nc(-c3ccccc3)c(-c3cccs3)[nH]2)cc(OC)c1OC,,"inconclusive: 0.184 µM [falling, partial curve, poor fit]"
COc1cc(/C=N/NC(=S)Nc2cccc(S(=O)(=O)N(C)C)c2)cc(OC)c1O,,"inconclusive: 6.51 µM [falling, partial curve, poor fit]"
Cc1sc(NC(=O)C2C3CCC(O3)C2C(=O)O)nc1-c1ccc(CC(C)C)cc1 (stereo unspecified),inconclusive: 4.01%,
C=CCSc1nnc(NC(=O)Cc2ccc(OC)c(OC)c2)s1,inconclusive: 6.92%,
CCn1cc(/C=N/NS(=O)(=O)c2ccc(OC)cc2)c(C)n1,inconclusive: 14.3%,
COC(=O)c1ccc(/C=C2\SC(=S)N(CCCC(=O)NCCCN3CCOCC3)C2=O)cc1,inconclusive: -15.1%,
COCCCNC(=O)c1c(N)n(/N=C/c2cccs2)c2nc3ccccc3nc12,inconclusive: -0.21%,
COc1ccc(OCc2nnc(SCC(=O)N3CCCc4ccccc43)n2-c2ccc(C)cc2)cc1,,"inconclusive: 25.9 µM [falling, single point]"
CCS(=O)(=O)N1CCN(c2cccc(C)c2C)CC1,inconclusive: 0.0293%,

# Additional entries follow.

SMILES,"activity change, negative = inhibition",Potency
COc1ccc(-c2ncccc2OC(=O)C23CC4CC(CC(C4)C2)C3)cc1,inconclusive: 2.13%,
CC(C)(C)S(=O)(=O)c1cnc(N2CCOCC2)nc1N,inconclusive: 0.217%,
Nc1nc(CN2CCN(Cc3ccccc3)CC2)nc(Nc2ccccc2)n1,inactive: 2.91%,
CCCc1ccc(S(=O)(=O)NCCc2ccncc2)cc1,,"inconclusive: 16.4 µM [falling, single point]"
COc1ccc(C(=O)N/N=C(\C)CC(=O)N2CCN(C=O)CC2)cc1,,"inconclusive: 20.6 µM [falling, partial curve]"
COc1ccccc1CNC(=O)CCC(=O)N1Cc2cccc(OC)c2Oc2ncccc21,inactive: 3.99%,
Cc1ccc(NC(=O)CN(C)C(=O)COC(=O)/C=C/c2cccs2)cc1,inconclusive: 24.8%,
CCC(=O)Nc1cccc(C(=O)/C=C/c2ccccc2)c1,,"inconclusive: 20 µM [falling, single point]"
COC(=O)c1ccc(N)c(N=CC2=C(O)CC(C)(C)CC2=O)c1,inactive: -15.1%,
Cc1cccc(C(=O)Nc2scc(CC(C)C)c2C(=O)O)c1,,"inconclusive: 29.1 µM [rising, single point]"
COc1ccc(C2CC(c3cccs3)=NN2S(C)(=O)=O)cc1OC (stereo unspecified),inconclusive: 2%,
O=c1c2ccccc2nc(-c2ccco2)n1CCc1ccc(O)cc1,inactive: 6.56%,
Cc1[nH]n(C)c(=O)c1C(=O)c1c(-c2ccccc2Cl)noc1C,,"inconclusive: 10 µM [falling, partial curve, poor fit]"
CSc1nc(-c2ccccc2)c(-c2ccccc2)[nH]1,inactive: 5.82%,
CCCNc1cc(C)c(C#N)c2nc3ccccc3n12,inactive: 10.8%,
Cc1ccc(C(=O)Nc2ccccc2C(=O)NC(CC(=O)O)C(=O)O)cc1 (stereo unspecified),,"inconclusive: 15.8 µM [falling, partial curve, poor fit]"
Cc1nc(N)sc1N=Nc1ccc(F)cc1,,"inconclusive: 25.9 µM [falling, single point]"
O=C(CSc1ccc(-c2ccco2)nn1)N1CCCCCC1,inconclusive: 11.5%,
COC(=O)c1ccc(NC(=O)CSCc2ccccc2C)cc1,inactive: -0.684%,
Cc1cc(C)cc(NC(=S)N(Cc2ccc(Cl)cc2)Cc2ccc(C(=O)O)cc2)c1,inconclusive: 16.9%,
COc1ccc(C2(CNC(C)=O)CCOCC2)cc1OC,inconclusive: 8.31%,

SMILES,"activity change, negative = inhibition",Potency
COCCCNC(=O)c1cc2c(-c3ccc(Cl)cc3)nn(C)c2s1,,"inconclusive: 6.51 µM [rising, single point]"
CCC(=O)N1CCN(c2ccc(NC(=O)c3cc4ccccc4o3)cc2Cl)CC1,inconclusive: 25.2%,
COC1CC(C)NC(=S)N1 (stereo unspecified),inconclusive: -19.1%,
Cc1ccc(S(=O)(=O)N(C)c2ccc(C(=O)Nc3ccc(C)cn3)cc2)cc1,inconclusive: 16.2%,
Fc1ccc2cnc(C3=CCCCC3)cc2c1,inconclusive: 7.65%,
CCOC(=O)c1c(S(=O)(=O)N2CCCC(C(=O)Nc3cc(C)ccn3)C2)c(C)n(C)c1C (stereo unspecified),inconclusive: 13.4%,
COc1cccc(CNC(=O)N2CCN(c3ccccc3Cl)CC2)c1,,"inconclusive: 11.2 µM [falling, partial curve]"
COc1ccc(OC)c(C(c2nnnn2CCc2ccccc2)N2CCN(c3ccccc3)CC2)c1 (stereo unspecified),inconclusive: 11.9%,
COc1cccc(CC(=O)Nc2ccc(S(=O)(=O)Nc3nccs3)cc2)c1,inactive: 3.69%,
CCn1c(C)nnc1SCC(=O)Nc1cccc(Cl)c1,inactive: 6.39%,
COc1ccc(C(=O)Nc2nccs2)cc1,inconclusive: 6.65%,
Cc1ccc(C(=O)CSc2cc(C)[nH]c(=O)n2)cc1,inactive: -1.25%,
CCOC(=O)c1c(NC(=O)c2ccc(S(=O)(=O)N3CCC(C)CC3)cc2)sc2c1CCN(CC)C2,inactive: -0.0651%,
COc1ccc(S(=O)(=O)N2CCN(S(=O)(=O)c3c(F)cccc3F)CC2)cc1,inactive: 0.596%,
C#CC[N+](C)(C)C(C#Cc1ccccc1)CC=C (stereo unspecified),inactive: 1.79%,
C=Cc1ccc(Cn2nc(-c3ccc(C)cc3)ccc2=O)cc1,inactive: -5.89%,
Cc1cccc(-n2cc(-c3ccccc3)c3c(NC4CCCC4)ncnc32)c1,inconclusive: 11.9%,
CC(C)N(C)C1CCN(S(=O)(=O)c2ccc(-c3ccc(=O)[nH]n3)s2)CC1,,"inconclusive: 14.1 µM [falling, partial curve, poor fit]"
